Results on one molecule are retold here after PMC5324674.

No constants are given. Whether binding was seen depends on the method and setting. Where a sequence is shown, tags or fusion partners need not be part of it.

This test concerns the target T1, NAR1, ProQuest two‐hybrid fusion (Arabidopsis thaliana) (UniProt Q94CL6).
T1 sequence: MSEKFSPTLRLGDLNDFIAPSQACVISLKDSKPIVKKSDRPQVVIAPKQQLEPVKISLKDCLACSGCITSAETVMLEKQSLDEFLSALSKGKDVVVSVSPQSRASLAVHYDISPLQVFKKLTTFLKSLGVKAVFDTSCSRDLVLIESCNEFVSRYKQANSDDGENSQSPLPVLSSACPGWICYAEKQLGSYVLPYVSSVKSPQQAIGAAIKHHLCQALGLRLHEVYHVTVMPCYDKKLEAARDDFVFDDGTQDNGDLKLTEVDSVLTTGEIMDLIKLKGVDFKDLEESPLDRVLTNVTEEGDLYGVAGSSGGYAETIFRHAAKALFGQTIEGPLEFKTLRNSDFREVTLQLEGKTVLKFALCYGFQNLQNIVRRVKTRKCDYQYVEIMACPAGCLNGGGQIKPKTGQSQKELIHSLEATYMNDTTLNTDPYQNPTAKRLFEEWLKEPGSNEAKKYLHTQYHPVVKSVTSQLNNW
As to the kind of experiment: two-hybrid; Invitrogen ProQuest Two-Hybrid System with Gateway Technology; binary tests of BD and AD fusions; growth on dropout histidine medium with 100 mM 3-AT.

B1: Nucleotide‐Binding Protein 35 kDa (NBP35), full‐length, ProQuest two‐hybrid fusion (protein, UniProt Q8H1Q2 1-350)
chain: MENGDIPEDANEHCPGPQSESAGKSDSCAGCPNQEACATAPKGPDPDLVAIAERMSTVKHKILVLSGKGGVGKSTFSAQLSFALAGMDHQVGLMDIDICGPSIPKMLGLEGQEIHQSNLGWSPVYVEDNLGVMSIGFMLPNSDEAVIWRGPRKNGLIKQFLKDVYWGEIDYLVVDAPPGTSDEHISIVQYLLPTGIDGAIIVTTPQEVSLIDVRKEVSFCKKVGVPVLGVVENMSGLSQPLKDVKFMKLATETGSSINVTEDVIACLRKNAPELLDIVACSEVFDSSGGGAERMCREMGVPFLGKVPMDPQLCKAAEQGKSCFEDNKCLISAPALKSIIQKVVPSTVMTE
As to B1, the binding result was “no binding”.
